PubChem BioAssay AID1224830 – NIAID – 2016
Assay: 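Regulators of TLR4 signalling towards TNF-alpha in macrophage-like cells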 (primary screen). System: human THP-1 monocytic leukaemia cells, TNF dual-luciferase reporter clone, PMA-differentiated to macrophage-like cells. Reagent: siRNA pool against human genes, 50 nM. Time to read-out: LPS for 4 h, given about 3 days after siRNA transfection. Conditions: bacterial LPS (TLR4 ligand), 10 ng/ml. Measured: 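TNF firefly reporter luminescence divided by renilla, normalised to the plate median, then turned into a robust z-score for each replicate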. Reading the numbers: TNF reporter robust z-score: higher = stronger TNF reporter response to LPS. Active means: 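a well is active when its z-score exceeds 2.8 or falls below -1.5; control wells carry no call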.
The whole screen tested about 18,000 reagents; below is an unselected part. In the full data, about 2,900 (16%) are marked active. 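Calls are made per well; low scores hint the gene aids the LPS response, high scores that it dampens it.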 Unmarked entries are inactive. Repeated entries: four replicate wells of each siRNA pool.

target gene | TNF reporter robust z-score
SLC25A20 | 0.4
SLC25A20 | 1.33
SLC25A20 | 1.4
SLC25A20 | 1.85
PDAP1 (PDGFA associated protein 1) | -0.41
PDAP1 (PDGFA associated protein 1) | -0.44
PDAP1 (PDGFA associated protein 1) | -1.17
PDAP1 (PDGFA associated protein 1) | -0.86
FADS3 (fatty acid desaturase 3) | -1.47
FADS3 (fatty acid desaturase 3) | -1.22
FADS3 (fatty acid desaturase 3) | -1.59 (active)
FADS3 (fatty acid desaturase 3) | -1.55 (active)
TGFBR1 (transforming growth factor beta receptor 1) | -0.94
TGFBR1 (transforming growth factor beta receptor 1) | 0.27
TGFBR1 (transforming growth factor beta receptor 1) | -0.62
TGFBR1 (transforming growth factor beta receptor 1) | -0.03
CTU1 (cytosolic thiouridylase subunit 1) | 0.13
CTU1 (cytosolic thiouridylase subunit 1) | -0.47
CTU1 (cytosolic thiouridylase subunit 1) | -0.41
CTU1 (cytosolic thiouridylase subunit 1) | -0.28
DNM1L (dynamin 1L) | -1.53 (active)
DNM1L (dynamin 1L) | -1.64 (active)
DNM1L (dynamin 1L) | -0.7
DNM1L (dynamin 1L) | -1.56 (active)
KDSR (3-ketodihydrosphingosine reductase) | 3.22 (active)
KDSR (3-ketodihydrosphingosine reductase) | 0.91
KDSR (3-ketodihydrosphingosine reductase) | 0.62
KDSR (3-ketodihydrosphingosine reductase) | 0.06
BPY2C (basic charge Y-linked 2C) | -1.25
BPY2C (basic charge Y-linked 2C) | -0.71
BPY2C (basic charge Y-linked 2C) | -1.16
BPY2C (basic charge Y-linked 2C) | 0.26
TCL1A (TCL1 family AKT coactivator A) | 0.84
TCL1A (TCL1 family AKT coactivator A) | 3.2 (active)
TCL1A (TCL1 family AKT coactivator A) | 1.18
TCL1A (TCL1 family AKT coactivator A) | 2.52
SLC22A1 | 0.35
SLC22A1 | 0.02
SLC22A1 | -0.7
SLC22A1 | 1.38

Already shown: entries from further up.
target gene | TNF reporter robust z-score
TGFBR1 (transforming growth factor beta receptor 1) | -0.62
TGFBR1 (transforming growth factor beta receptor 1) | -0.03
CTU1 (cytosolic thiouridylase subunit 1) | 0.13
CTU1 (cytosolic thiouridylase subunit 1) | -0.47
CTU1 (cytosolic thiouridylase subunit 1) | -0.41
CTU1 (cytosolic thiouridylase subunit 1) | -0.28
DNM1L (dynamin 1L) | -1.53 (active)
DNM1L (dynamin 1L) | -1.64 (active)
DNM1L (dynamin 1L) | -0.7

More results follow:
target gene | TNF reporter robust z-score
DISP1 (dispatched RND transporter family member 1) | 0.38
DISP1 (dispatched RND transporter family member 1) | 0.68
DISP1 (dispatched RND transporter family member 1) | 0.3
DISP1 (dispatched RND transporter family member 1) | 0.48
CDT1 (chromatin licensing and DNA replication factor 1) | 0.46
CDT1 (chromatin licensing and DNA replication factor 1) | 0.28
CDT1 (chromatin licensing and DNA replication factor 1) | 0.17
CDT1 (chromatin licensing and DNA replication factor 1) | 0.08
KRT33A (keratin 33A) | 1.46
KRT33A (keratin 33A) | 2.08
KRT33A (keratin 33A) | 1.93
KRT33A (keratin 33A) | 1.56
ITGA2B (integrin subunit alpha 2b) | -0.64
ITGA2B (integrin subunit alpha 2b) | 0.1
ITGA2B (integrin subunit alpha 2b) | 0.97
ITGA2B (integrin subunit alpha 2b) | -0.23
STAC3 (SH3 and cysteine rich domain 3) | -1.36
STAC3 (SH3 and cysteine rich domain 3) | -1
STAC3 (SH3 and cysteine rich domain 3) | -0.84
STAC3 (SH3 and cysteine rich domain 3) | -0.74
FRMD5 (FERM domain containing 5) | -1.38
FRMD5 (FERM domain containing 5) | -0.76
FRMD5 (FERM domain containing 5) | -0.79
FRMD5 (FERM domain containing 5) | -1.53 (active)
PIK3C2A | -1.72 (active)
PIK3C2A | -1.4
PIK3C2A | -1.58 (active)
PIK3C2A | -1.18
S100A7 (S100 calcium binding protein A7) | -0.19
S100A7 (S100 calcium binding protein A7) | -0.02
S100A7 (S100 calcium binding protein A7) | -0.05
S100A7 (S100 calcium binding protein A7) | -0.04
P3H1 (prolyl 3-hydroxylase 1) | -1.43
P3H1 (prolyl 3-hydroxylase 1) | -1.04
P3H1 (prolyl 3-hydroxylase 1) | -0.92
P3H1 (prolyl 3-hydroxylase 1) | -1.28
